Data as given in PubChem BioAssay AID720505 (Drosophila RNAi Screening Center, 2013).
The deposit covers about 20,000 reagents; below is an unselected part of those with a known target gene and a result. Over the whole deposit, about 2,100 (10%) were called active. 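Raw plate signals without normalisation; calls rest on control-based scores that were not deposited; replicate 2 separates called from uncalled poorly.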 The numbers tell different reagents against one gene apart. A plus sign joins genes that one reagent is predicted to hit. Reagent sequences are not shown. Not stated in the record: the amount of reagent, the time to read-out.

Test: 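Knock-downs that reduce calcium influx once internal stores are emptied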 (primary screen)
Cells: Drosophila S2R+ cells
Reagents: long dsRNA against Drosophila genes
Conditions: thapsigargin (2 µM) in calcium-free buffer to empty internal stores, then 2 mM calcium added back
Measured: 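Fluo-4 signal in 384-well plates read on a FLIPR after thapsigargin (2 µM, calcium-free) store depletion and 2 mM calcium add-back; unnormalised mean endpoint per well; screen run twice, selected wells retested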
Scale: calcium signal and retest calcium signal: higher = more calcium entry after store depletion
Hit rule: 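Knock-downs counted as hits when calcium entry dropped relative to STIM1 positive and Rho1 negative controls present on each plate; roughly 1500 genes called, with reductions of differing size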
Meaning of the calls: active = called as lowering calcium entry; inactive = not called

| predicted target | reagent no. | calcium signal, replicate 1 | calcium signal, replicate 2 | retest calcium signal, replicate 1 | retest calcium signal, replicate 2 | Outcome |
| --- | --- | --- | --- | --- | --- | --- |
| Ndae1 (GeneID 34005) | 1 | 57.1 | 88 | – | – | active |
| Ndae1 (GeneID 34005) | 2 | 116 | 210 | – | – | inactive |
| Fip1 (GeneID 40569) | 1 | 64.6 | 110 | – | – | active |
| fng (GeneID 40314) | 1 | 8794 | 124 | – | – | inactive |
| fng (GeneID 40314) | 2 | 150 | 86.7 | – | – | inactive |
| fng (GeneID 40314) | 3 | 68.3 | 246 | – | – | inactive |
| CG18766 (GeneID 59150) | 1 | 121 | 113 | – | – | inactive |
| CG9616 (GeneID 41731) | 1 | 86.5 | 53.1 | – | – | inactive |
| CG13297 (GeneID 38711) | 1 | 111 | 89.2 | – | – | inactive |
| CG11381 (GeneID 31067) | 1 | 125 | 113 | – | – | inactive |
| qin (GeneID 42236) | 1 | 243 | 166 | – | – | inactive |
| qin (GeneID 42236) | 2 | 155 | 111 | – | – | inactive |
| CG8349 (GeneID 34124) | 1 | 117 | 153 | – | – | inactive |
| pasi2 (GeneID 41113) | 1 | 55.4 | 80.6 | – | – | active |
| CG2839 (GeneID 33244) | 1 | 95.9 | 138 | – | – | inactive |
| shps (GeneID 42892) | 1 | 263 | 170 | – | – | inactive |
| CG12560 (GeneID 34092) | 1 | 118 | 134 | – | – | inactive |
| Ctr1B + Poxm | 1 | 120 | 106 | – | – | inactive |
| betaGlu (GeneID 43746) | 1 | 102 | 156 | – | – | inactive |
| CG18586 (GeneID 38659) | 1 | 103 | 84.8 | – | – | inactive |
| CG11294 (GeneID 31807) | 1 | 215 | 73.2 | – | – | inactive |
| MKP-4 (GeneID 32963) | 1 | 115 | 94.4 | – | – | inactive |
| CG31213 (GeneID 42382) | 1 | 107 | 105 | – | – | inactive |
| CG31213 (GeneID 42382) | 2 | 177 | 121 | – | – | inactive |
| phyl (GeneID 36606) | 1 | 107 | 117 | – | – | inactive |
| CG2765 (GeneID 37994) | 1 | 95.6 | 118 | – | – | inactive |
| Neurochondrin (GeneID 40796) | 1 | 109 | 155 | – | – | inactive |
| CG4053 (GeneID 42070) | 1 | 103 | 172 | 89.7 | 126 | inactive |
| Cdk8 (GeneID 39157) | 1 | 108 | 76.8 | – | – | inactive |
| beta'COP (GeneID 45757) | 1 | 86.2 | 87.5 | – | – | inactive |
| PMCA (GeneID 43787) | 1 | – | – | – | – | active |
| PMCA (GeneID 43787) | 2 | – | – | – | – | active |
| PMCA (GeneID 43787) | 3 | 49.6 | 59.4 | – | – | active |
| CG13117 (GeneID 34289) | 1 | 181 | 125 | – | – | inactive |
| Alp6 (GeneID 35981) | 1 | 204 | 135 | – | – | inactive |
| CG7083 (GeneID 38943) | 1 | 71.7 | 66.9 | – | – | inactive |
| CG17944 (GeneID 40885) | 1 | 79.2 | 115 | – | – | inactive |
| CG9926 (GeneID 41700) | 1 | 80 | 167 | – | – | inactive |
| CG12483 (GeneID 50161) | 1 | 70.2 | 137 | – | – | inactive |
| HIPP1 (GeneID 40302) | 1 | 94.7 | 119 | – | – | inactive |
| CR11023 (GeneID 33155) | 1 | 166 | 139 | – | – | inactive |
| c(3)G (GeneID 47765) | 1 | 113 | 196 | – | – | inactive |
| CG42686 (retired record) (GeneID 42674) | 1 | 91.8 | 75.4 | – | – | active |
| CG42686 (retired record) (GeneID 42674) | 2 | 156 | 100 | – | – | inactive |
| CG42686 (retired record) (GeneID 42674) | 3 | 97.6 | 144 | – | – | inactive |
| lin-28 (GeneID 38639) | 1 | 90.5 | 75.2 | – | – | inactive |
| Or35a (GeneID 34918) | 1 | 134 | 162 | – | – | inactive |
| pxb (GeneID 41899) | 1 | – | – | – | – | active |
| pxb (GeneID 41899) | 2 | 119 | 100 | 117 | 98.7 | inactive |
| pxb (GeneID 41899) | 3 | 147 | 102 | – | – | inactive |
| pxb (GeneID 41899) | 4 | 101 | 260 | – | – | inactive |
| COX6B (GeneID 32989) | 1 | 140 | 118 | – | – | inactive |
| meso18E (GeneID 53448) | 1 | 78 | 103 | – | – | inactive |
| Gr43a (GeneID 35655) | 1 | 132 | 174 | – | – | inactive |
| CG16863 (GeneID 34784) | 1 | 153 | 150 | – | – | inactive |
| RpS13 (GeneID 34149) | 1 | 104 | 211 | – | – | inactive |
| Sbds (GeneID 38749) | 1 | 110 | 164 | – | – | inactive |
| Spn43Ab (GeneID 45040) | 1 | 106 | 103 | – | – | inactive |
| Nle (GeneID 33234) | 1 | 112 | 120 | – | – | inactive |
| levy (GeneID 37728) | 1 | 147 | 192 | – | – | inactive |
| ND-B14.5AL (GeneID 40477) | 1 | 103 | 243 | – | – | inactive |
| CG3795 (GeneID 31128) | 1 | 76.8 | 117 | – | – | inactive |
| CG15153 (GeneID 35080) | 1 | 96 | 112 | – | – | inactive |
| VhaM9.7-a (GeneID 38521) | 1 | 98.2 | 97.2 | – | – | inactive |
| CG31638 (GeneID 33910) | 1 | 97.8 | 100 | – | – | inactive |
| CG31638 (GeneID 33910) | 2 | 110 | 113 | – | – | inactive |
| Ubc84D (GeneID 40900) | 1 | 121 | 143 | – | – | inactive |
| CG5890 (GeneID 43126) | 1 | 226 | 197 | – | – | inactive |
| CG14778 (GeneID 31100) | 1 | 74.1 | 112 | – | – | inactive |
| CG13856 (GeneID 42628) | 1 | 231 | 154 | – | – | inactive |
| CG17660 (GeneID 33347) | 1 | 113 | 305 | – | – | inactive |
| CG15873 (GeneID 37898) | 1 | 159 | 167 | – | – | inactive |
| naz (GeneID 42204) | 1 | 207 | 130 | – | – | inactive |
| naz (GeneID 42204) | 2 | 136 | 162 | – | – | inactive |
| Nnp-1 (GeneID 44391) | 1 | 78.4 | 75 | – | – | active |
| CG11882 (GeneID 43446) | 1 | 61.9 | 98.5 | – | – | active |
| Remo (GeneID 2768909) | 1 | 87.2 | 107 | – | – | inactive |
| tea (GeneID 36027) | 1 | 246 | 172 | – | – | inactive |
| tea (GeneID 36027) | 2 | 73.3 | 99.2 | – | – | inactive |
| cpa (GeneID 37387) | 1 | 160 | 102 | – | – | inactive |
| CG10561 (GeneID 35189) | 1 | 100 | 92.2 | – | – | inactive |
| Hexim (GeneID 41778) | 1 | 134 | 141 | – | – | inactive |
| lncRNA:CR42859 (GeneID 10178841) | 1 | 76.4 | 67.6 | – | – | active |
| CG11911 (GeneID 33206) | 1 | 90.3 | 175 | – | – | inactive |
| CG34045 (GeneID 3885656) | 1 | 135 | 82.7 | – | – | inactive |
| CG7497 (GeneID 39966) | 1 | 147 | 120 | – | – | inactive |
| Rpn13 (GeneID 36545) | 1 | 113 | 233 | – | – | inactive |
| CG33458 (GeneID 2768846) | 1 | 105 | 134 | – | – | inactive |
| PTPMT1 (GeneID 42807) | 1 | 139 | 164 | – | – | inactive |
| CG17658 (GeneID 37793) | 1 | 141 | 195 | – | – | inactive |
| CG9578 (GeneID 33018) | 1 | 155 | 141 | – | – | inactive |
| sra (GeneID 47384) | 1 | 155 | 202 | – | – | inactive |
| Stt3B (GeneID 43005) | 1 | 297 | 153 | – | – | inactive |
| CG6059 (GeneID 43270) | 1 | 124 | 167 | – | – | inactive |
| Lon (GeneID 40138) | 1 | 82.1 | 100 | – | – | inactive |
| Karybeta3 (GeneID 40581) | 1 | 161 | 103 | – | – | inactive |
| CG10257 (GeneID 36671) | 1 | 113 | 195 | – | – | inactive |
| CG34166 (GeneID 5740596) | 1 | 127 | 137 | 120 | 92.5 | inactive |
| CG34002 (GeneID 3885644) | 1 | 6403 | 106 | – | – | inactive |
| CG1663 (GeneID 36012) | 1 | 110 | 159 | – | – | inactive |
| CG1663 (GeneID 36012) | 2 | 112 | 182 | – | – | inactive |
| CG10734 (GeneID 36787) | 1 | 142 | 167 | – | – | inactive |
| CG5004 (GeneID 32698) | 1 | 89.3 | 122 | – | – | inactive |
| CG5004 (GeneID 32698) | 2 | 62.8 | 147 | – | – | active |
| CG5004 (GeneID 32698) | 3 | 89.5 | 136 | – | – | inactive |
| CG42703 (GeneID 10178828) | 1 | 69.1 | 7076 | – | – | inactive |

An excerpt taken from the entries so far:
| predicted target | reagent no. | calcium signal, replicate 1 | calcium signal, replicate 2 | retest calcium signal, replicate 1 | retest calcium signal, replicate 2 | Outcome |
| --- | --- | --- | --- | --- | --- | --- |
| CG18766 (GeneID 59150) | 1 | 121 | 113 | – | – | inactive |
| CG9616 (GeneID 41731) | 1 | 86.5 | 53.1 | – | – | inactive |
| CG13297 (GeneID 38711) | 1 | 111 | 89.2 | – | – | inactive |
| CG11381 (GeneID 31067) | 1 | 125 | 113 | – | – | inactive |
| qin (GeneID 42236) | 1 | 243 | 166 | – | – | inactive |
